The values that follow come from publication PMC7990204.

This assay addresses T1, SMC1A-R586W (mouse (endogenous in V6.5 mESCs)) (UniProt Q9CU62).
T1 sequence: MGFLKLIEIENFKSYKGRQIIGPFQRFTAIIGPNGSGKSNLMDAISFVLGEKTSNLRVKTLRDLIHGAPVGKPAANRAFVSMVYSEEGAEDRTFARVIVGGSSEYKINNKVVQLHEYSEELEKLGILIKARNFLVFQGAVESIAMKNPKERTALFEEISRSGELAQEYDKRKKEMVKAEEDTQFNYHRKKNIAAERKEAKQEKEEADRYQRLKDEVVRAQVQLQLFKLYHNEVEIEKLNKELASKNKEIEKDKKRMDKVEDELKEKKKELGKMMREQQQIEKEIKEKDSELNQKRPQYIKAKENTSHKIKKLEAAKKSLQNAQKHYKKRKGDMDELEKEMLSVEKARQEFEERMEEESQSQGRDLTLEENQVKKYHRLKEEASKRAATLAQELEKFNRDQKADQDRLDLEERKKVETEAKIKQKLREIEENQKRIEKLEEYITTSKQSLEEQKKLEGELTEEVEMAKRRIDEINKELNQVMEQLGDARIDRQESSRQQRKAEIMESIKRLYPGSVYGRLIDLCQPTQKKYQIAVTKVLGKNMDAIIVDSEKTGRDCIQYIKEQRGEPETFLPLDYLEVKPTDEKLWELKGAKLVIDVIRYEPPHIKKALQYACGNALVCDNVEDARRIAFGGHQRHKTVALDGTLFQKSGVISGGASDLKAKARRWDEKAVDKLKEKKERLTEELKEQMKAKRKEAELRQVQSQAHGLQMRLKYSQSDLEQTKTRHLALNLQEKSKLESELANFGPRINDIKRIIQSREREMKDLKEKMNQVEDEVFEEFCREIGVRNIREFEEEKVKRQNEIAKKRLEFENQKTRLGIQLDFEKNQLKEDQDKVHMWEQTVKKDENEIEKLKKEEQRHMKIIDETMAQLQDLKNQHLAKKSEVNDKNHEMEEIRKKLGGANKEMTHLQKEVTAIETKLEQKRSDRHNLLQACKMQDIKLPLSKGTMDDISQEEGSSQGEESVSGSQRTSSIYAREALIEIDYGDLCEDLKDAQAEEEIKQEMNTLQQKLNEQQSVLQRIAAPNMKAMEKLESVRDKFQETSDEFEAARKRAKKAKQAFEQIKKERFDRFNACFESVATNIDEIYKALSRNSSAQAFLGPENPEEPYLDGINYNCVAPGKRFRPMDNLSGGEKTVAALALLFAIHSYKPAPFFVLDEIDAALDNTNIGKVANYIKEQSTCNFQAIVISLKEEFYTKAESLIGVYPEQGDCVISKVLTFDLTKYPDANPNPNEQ
Nature of the assay: co-IP; endogenous proteins; 250 ug benzonase-treated nuclear extract of wildtype or SMC1A-R586W mESCs in 500 ul 1x low-stringency IP buffer, overnight at 4 C; 10 ug antibody (SMC1A, NIPBL, STAG2 or non-specific rabbit IgG) on Protein G Dynabeads; western blot. (In western blotting, separated proteins are transferred to a membrane and probed.)

These are yes or no findings as the source states them, for the method shown. In cells and extracts the contact can be indirect. Some entries that bind do so weakly or less than the wild type.

B1: PDS5A (protein, UniProt Q6A026 1-1332)
chain: MDFTQPKPATALCGVVSADGKIAYPPGVKEITDKITTDEMIKRLKMVVKTFMDMDQDSEDEKQQYLPLALHLASEFFLRNPNKDVRLLVACCLADIFRIYAPEAPYTSHDKLKDIFLFITRQLKGLEDTKSPQFNRYFYLLENLAWVKSYNICFELEDCNEIFIQLFRTLFSVINNSHNTKVQMHMLDLMSSIIMEGDGVTQELLDSILINLIPAHKNLNKQSFDLAKVLLKRTVQTIEACIANFFNQVLVLGRSSVSDLSEHVFDLIQELFAIDPQLLLSVMPQLEFKLKSNDGEERLAVVRLLAKLFGSKDSDLATQNRPLWQCFLGRFNDIHVPVRLESVKFASHCLMNHPDLAKDLTEYLKVRSHDPEEAIRHDVIVTIITAAKRDLALVNDQLLGFVRERTLDKRWRVRKEAMMGLAQLYKKYCLHGEAGKEAAEKVSWIKDKLLHIYYQNSIDDKLLVEKIFAQYLVPHNLETEERMKCLYYLYASLDPNAVKALNEMWKCQNMLRSHVRELLDLHKQPTSEANCSAMFGKLMTIAKNLPDPGKAQDFVKKFNQVLGDDEKLRSQLELLISPTCSCKQADVCVREIARKLANPKQPTNPFLEMVKFLLERIAPVHIDSEAISALVKLMNKSIEGTADDEEEGVSPDSAIRSGLELLKVLSFTHPTSFHSAETYESLLQCLRMEDDKVAEAAIQIFRNTGHKIETDLPQIRSTLIPILHQKAKRGTPHQAKQAVHCIHAIFSNKEVQLAQIFEPLSRSLNADVPEQLITPLVSLGHISMLAPDQFASPMKSVVANFIVKDLLMNDRSTGEKNGKLWSPDEEVSPEVLAKVYLLRLLVRWLLGMKNNQSKSANSTLRLLSAMLVSEGDLTEQKRISKSDMSRLRLAAGSAIMKLAQEPCYHEIITPEQFQLCALVINDECYQVRQIFAQKLHKALVKLLLPLEYMAIFALCAKDPVKERRAHARQCLLKNISIRREYIKQNPMATEKLLSLLPEYVVPYMIHLLAHDPDFTRSQDVDQLRDIKECLWFMLEVLMTKNENNSHAFMKKMAENIKLTRDAQSPDESKTNEKLYTVCDVALCVINSKSALCNADSPKDPVLPMKFFTQPEKDFCNDKSYISEETRVLLLTGKPKPTGVLGTVNKPLSATGRKPYVRSAGTETGSNINANSELSPSAGSRSREQSSEASETGVSENEENPVRIISVTPVKNIDTVKNKEINSDQSTQGNISSDRGKKRIVTAAGAENIQKPDEKVDESGPPAPSKPRRGRRPKSESQGNATKNDDLNKPVSKGRKRAAGSQESLEAGNAKAPKLQDGAKKAVPAERQIDLQR
As to B1, the binding entry is on record as “binds”.
